Assay results from patent US20060058237.
Construct, isoform or probe ends are uncertain for at least one entry. No signal at the amounts used counts as a negative. Where a protein sequence is shown, tags need not be part of it.

Molecular target: T1, p49/STRAP (UniProt Q9CZ91)
T1 sequence: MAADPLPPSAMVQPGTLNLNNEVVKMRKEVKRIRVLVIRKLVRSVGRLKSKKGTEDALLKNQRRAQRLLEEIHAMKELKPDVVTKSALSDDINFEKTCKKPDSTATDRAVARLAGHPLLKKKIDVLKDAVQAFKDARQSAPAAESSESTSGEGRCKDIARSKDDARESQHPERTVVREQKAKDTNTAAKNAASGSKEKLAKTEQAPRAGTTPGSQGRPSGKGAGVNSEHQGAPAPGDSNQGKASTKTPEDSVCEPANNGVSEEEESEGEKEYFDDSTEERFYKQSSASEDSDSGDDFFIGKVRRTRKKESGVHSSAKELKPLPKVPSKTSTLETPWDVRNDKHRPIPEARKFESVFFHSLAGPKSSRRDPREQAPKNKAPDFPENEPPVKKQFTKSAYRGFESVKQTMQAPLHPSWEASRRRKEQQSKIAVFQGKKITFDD
Assay: EMSA
Conditions: with SRF present, no additional band shifted by anti-SRF or anti-HA, no ternary complex with SRF at SRE, in vitro translated protein and NIH3T3 lysate, data not shown

Sequence: GGATGTCCATATTAGGACATCT (double strand) [c-fos SRE consensus oligonucleotide]
- binding result: no binding
